Where no end group is shown, it is not given here.
System: Rat CC14 liver damage model
Assay: Rat CC14 liver damage model (chronic liver fibrosis)
Type: in vivo, SD rat
Procedure: To evaluate the protective effect of peptide SEQ ID NO:1 on liver damage, we used chronic liver fibrosis model (rat CC14 model) for efficacy evaluation.
Rat CC14 liver damage model
(1) Control group: saline, sc, 2 ml/kg, 10 rats
(2) model group: 40% CC14, sc, 2 ml/kg, 17 rats
(3) Gan-li-xin group: 25 mg/kg, iv, 10 ml/kg, 15 rats
(4) Prevention, high dose group: 50 μg peptide SEQ ID NO:1/kg, iv, 10 ml/kg, 17 rats
(5) Prevention, low dose group: 10 μg peptide SEQ ID NO:1/kg, iv, 10 ml/kg, 17 rats
(6) Treatment, high dose group: 100 μg peptide SEQ ID NO:1/kg, iv, 10 ml/kg, 17 rats
(7) Treatment, high dose group: 20 μg peptide SEQ ID NO:1/kg, iv, 10 ml/kg, 17 rats
Except for control group, inject 40% CC14 subcutaneously twice (Tuesday, and Friday) every week in Group (2) to (6), drug volume (0.2 ml/100 g, the first time 0.5 ml/100 g). CC14 Model construction is 6 weeks. Parallel to the model construction, inject intravenously peptide SEQ ID NO:1 at 50 μg/kg and 10 μg/kg in group (4) and (5), respectively, once a day for 6 weeks. For Group (3), (6), and (7), starting from week 5, inject Gan-li-xin 25 mg/kg, peptide SEQ ID NO:1 at 100 μg/kg and 20 μg/kg, respectively, once a day, continuously for 2 weeks.
All rats were weighed once a week during model construction and drug injection. According to weight, the dose of drugs is adjusted. 24 hours after the last time of CC14 injection, liver weight parameters were examined.
Blood was extracted from femoral artery and serum was separated. The following parameters were examined: serum alanine aminotransferase (ALT), aspartate aminotransferase (AST), Bilirubin (TB), Alkaline phosphatase (ALP), total protein (TP), albumin (ALB), globulin (G), albumin/globulin ratio (A/G), glucose (GLU), total cholesterol (TCH), triglyceride (TG).
Liver homogenate: to examine cholesterol (TCH), triglyceride (TG), alanine aminotransferase (ALT), and aspartate aminotransferase (AST).
[…], dry at 110 C, examine Hydroxyproline (HPA).
Part of the liver is fixed in formalin for histology examination.

Molecule | weight (Gan-li-xin 25 mg/kg iv, once a day for 2 weeks from week 5) [g] | weight (Prevention, High dose 50 μg/kg iv, once a day for 6 weeks) [g] | weight (Prevention, low dose 10 μg/kg iv, once a day for 6 weeks) [g] | weight (Treatment, High dose 100 μg/kg iv, once a day for 2 weeks from week 5) [g] | weight (Treatment, low dose 20 μg/kg iv, once a day for 2 weeks from week 5) [g]
CC1(C)[C@@H](O[C@H]2O[C@H](C(=O)O)[C@@H](O)[C@H](O)[C@H]2O[C@@H]2O[C@H](C(=O)O)[C@@H](O)[C@H](O)[C@H]2O)CC[C@]2(C)[C@H]3C(=O)C=C4[C@@H]5C[C@@](C)(C(=O)O)CC[C@]5(C)CC[C@@]4(C)[C@]3(C)CC[C@@H]12.N.N [Gan-li-xin, Diammonium glycyrrhizinate, reference compound] | 269.2 ± 71.3 | – | – | – | –
SKVTKKYHEVLQLRPKTGVRGLHKSLTDVALEHHEECDCVCRGSTGG-OH (cysteines drawn unpaired) [Peptide SEQ ID NO:1] | – | 281 ± 53.7 | 276.4 ± 49.6 | 246.4 ± 54.2 | 289.4 ± 69.6
